Test results as given in PubChem BioAssay AID1508600 (Functional Genomics Laboratory (NCATS/FGL), 2020).
Out of some 53,000 sequences screened, about 3,700 (7%) were called active.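 Rule for the calls: active = gene knockdowns whose robust z-score for IL-1 alpha signal is at least 2 or at most -2, so actives lie on both sides; inactive = the rest.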 The list shows a part of the results.

assay: Components of the Cytosolic LPS Sensing Pathway: Gene Identification via Genome-wide siRNA Screen; details: RAW264.7 macrophages, IL-1a HTRF, actives lie on both sides, screened at 100 nM (by protocol), cells primed 5 h with Pam3CSK4 first;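 note: robust z of the log signal after scaling to non-targeting control siRNA wells of the plate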
How it was run: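 Cells (RAW264.7, 1×10^4 per well) were transfected with siRNA at 100 nM and cultured 48h at 37 degrees C. Pam3CSK4 was added for 5 hours; LipidA transfection followed for 24 hour. IL-1a was then measured by HTRF.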

Row | Sequence | z-score
1 | GCGUCAAAAUUAUCCGAAATT against Trnau1ap | inactive: 0.124
2 | CGUACCACACGAUGAAUAGTT against Pou4f1 | inactive: -0.525
3 | CCGAUUCGUUGGUAUUAACTT against Zadh2 | inactive: -0.0878
4 | GGACCUUCUUCUGUCCCUUTT against Ceacam19 | inactive: 0.134
5 | UAAAUGAGCUCGUAAUCUUTT against Olfr874 | active: 3.23
6 | CCUAGGUGUCGUACACAAATT against Galns | active: 2.45
7 | CGUUAGCAGGCAACAAAUCTT against Cyp2d13 | inactive: -1.04
8 | GUACUACAUGGAUCUCAAGTT against Pura | inactive: 1.59
9 | GGAGGUAGAGAUGUCCACCTT against Serpinb6b | inactive: 0.866
10 | GCACUUCUCAGUCUAUAACTT against Gm773 | inactive: 1.66
11 | GGAACAGUUCCUUGUGGUUTT against Uqcrh | inactive: 0.935
12 | GGGAGUUAAGAGCAUUCUCTT against Prl2a1 | inactive: 0.818
13 | GGGAAAUUCUGUCUAUUUUTT against Bmp5 | inactive: 1.14
14 | GGAGUACAGAAGUAAUCUCTT against Psme3ip1 | inactive: 1.71
15 | GGAAAACACAGCUACGGAATT against Ak5 | active: 2.21
16 | CCCUAAUGUGUAAAUGCAATT against Serp1 | inactive: -0.558
17 | GCGACUUAGGGAAAGAUACTT against Mtfp1 | inactive: -0.979
18 | CCACAAGGAACAAUGAUCCTT against Kirrel3 | inactive: -0.721
19 | GGGAUCAAUGGCUACCUGUTT against Slc7a10 | inactive: -0.0112
20 | GGGAAAUUUGGUGGCUACATT against Col14a1 | inactive: -0.215
21 | CCUCCUAUCGGCGAAGAAATT against Olfr282 | inactive: 1.61
22 | CAUGGAGGUCCUCAGAGACTT against Prb1 | inactive: -1.69

Row | Sequence | z-score
23 | GGAAGGAAACUGAUUGAGGTT against Slc30a7 | inactive: -0.336
24 | GGCUCAUCUGUCUAAAAUUTT against Spag1 | inactive: -0.205
25 | CCCAUCCAAUAAGCAAUUGTT against Lpcat2 | inactive: -0.696
26 | GGAGGAGCAGGAACAGUAUTT against B4gat1 | inactive: -0.955
27 | CCCUAAGCUGAAACGAAAUTT against Tas2r119 | inactive: 0.611
28 | CCCACGGAAAACAAUAUUUTT against Cpeb4 | inactive: -0.0851
29 | GCCUAUAAGAACUUUUUCATT against Tnc | inactive: 0.497
30 | GCUUGGACUGGAGUGAAGCTT against Map6d1 | active: -2.4
31 | GGAAAGUCCUGGGAAAUACTT against Olfr697 | inactive: -0.392
32 | GCAGAUGUACUCUAAGGGUTT against Adam23 | inactive: 1.17
33 | GAGAAUCCCUUCGAGUACGTT against Fxyd2 | inactive: 0.528
34 | GGUCAAUGAAGAUGAACUGTT against Fxyd2 | inactive: 0.905
35 | GGUUGUCUGGAAUUUCCAUTT against Immp2l | active: 3.81
36 | GCCGUUUCACAGAGUACUCTT against Ltv1 | inactive: 0.555
37 | GGGAGGAAGUGGAAGUUCUTT against Tsc22d1 | inactive: 0.488
38 | GGCUCCAAGCACUAAAUAATT against B130024G19Rik | inactive: 0.168
39 | GGGUCCAGAAAUCAUGUUATT against Slc35a5 | inactive: -0.982
40 | CGGCAACUAUCCAUUGAAATT against Cyp2c50 | inactive: -0.826
41 | GGAAUUGAAACCUGAUGUUTT against Srfbp1 | inactive: 0.239
42 | GGCAACAUGCGGACAACAUTT against Trim14 | inactive: -0.42
43 | GCUGUUGAAAGCCUUCUGGTT against Krtap9-3 | inactive: 0.571
44 | GGUUACAUGCCCUACCUCATT against Def6 | inactive: 0.23

Row | Sequence | z-score
45 | GCCUAAUUAUGAUAGCAGUTT against Olfr639 | inactive: 0.834
46 | GGCACAGGGACCAUUGUUGTT against Hsd17b1 | inactive: -1.72
47 | GGAGUUGGUUCUGUGUUAUTT against Tcf7l2 | inactive: -0.271
48 | GCUGUAACUACAUUUGAGGTT against Rnf220 | inactive: -1.62
49 | GGCGUGAUCGCUCUCCAAUTT against Ncoa5 | inactive: 0.834
50 | GGCACUCAGUAACUGCAUGTT against Jakmip1 | inactive: 1.14
51 | CGACUUCAAAUCUGGGCCATT against Psmd14 | inactive: -1.03
52 | GCCGUUGCCUUUCAAGGGATT against Inhbe | inactive: -0.112
53 | CCCACUAAGGAGAUCAGUUTT against Lasp1 | inactive: 1.32
54 | GGAAGUUCUGCACACAGCATT against Pth1r | inactive: -0.921
55 | CCUAUACAAGGGAGGUGAATT against Il1f10 | inactive: -0.283
56 | GCAUUGACAUCGAUCAGAUTT against Irx1 | inactive: -0.642
57 | CCAGUACGGCCCUAUGAAUTT against Zic2 | inactive: -1.84
58 | GGUGGAAUGUCACUACACUTT against Calcoco1 | inactive: 0.916
59 | GGUAACACAGAAGAAAUCUTT against Higd1a | inactive: -0.0444
60 | CCUUCAGAUAUCUUAGAAATT against Selenoi | inactive: -0.334
61 | GGCAGCUGUUAUGCUUUUCTT against Cd302 | inactive: 0.822
62 | CCUUAUUUUGACCGUCCAATT against Ylpm1 | inactive: 0.123
63 | CCAACGAAUUCUUGUUACUTT against Kcnc3 | inactive: 0.376
64 | GGCUGCUGCUCAGUCUUUATT against Pou2f1 | inactive: 0.249
65 | GGAAUAUGCACUUAAGCAATT against Cdk19 | inactive: 0.481
66 | GGAGCUGAUCUUUUCAGUGTT against Slc35b3 | inactive: 1.01

Row | Sequence | z-score
67 | GGUGUGCUCUGUAAAUCAUTT against Trappc2 | inactive: 0.656
68 | GGGCAACAUUUUGGAUUAUTT against Naglu | inactive: -0.083
69 | CCGUAAUUACCUAAAACUCTT against Tbc1d9 | inactive: -0.649
70 | GGCUUUUGAGAAUUCAUUCTT against Kcna5 | active: 2.75
71 | GGAGCUUUUUAUGUUUUAGTT against Fam177a | inactive: 1.93
72 | GGCUAUGAGAUUUAGAGCATT against Ms4a13 | inactive: 0.509
73 | CCUUUCUAACUACUCUCACTT against Olfr149 | inactive: 1.13
74 | GGCUUUGCUUUUUCUGUAUTT against Ppif | inactive: -0.218
75 | GGAAAAAACCACGAUUGAGTT against Pecam1 | inactive: -0.434
76 | GGAAACAAAAGGAUUUCUGTT against Fbxl13 | inactive: 1.24
77 | GCUCAGAUGUAUAGACUCATT against Ap2a2 | inactive: 0.0961
78 | GCUGAGAGAAAGGUUCACATT against Tube1 | inactive: 0.0484
79 | CCUCAUUGAGGUAAUGCGGTT against Samm50 | inactive: -0.548
80 | GGCUCAGAAACUAUUGAUATT against Rpgr | inactive: 0.584
81 | GGCUUAUACGCUCCAUAUUTT against Gykl1 | inactive: -0.214
82 | GCAACCCUUCUGAACAGGATT against Scyl2 | inactive: 0.468
83 | GCCUUUACACUAAUGAUAATT against Cilp | inactive: 0.455
84 | GGUGGAAUAAUGGACAAGATT against Blnk | inactive: 0.0728
85 | GCGAGCUAUUCUUCCUUGUTT against Eif4a1 | active: -2.13
86 | GGAUAAGAAGCGAUUUGAATT against Rcn2 | inactive: -0.294
87 | GGAACUCUCCUUGCAUCAGTT against Lrrc6 | inactive: 1.27
88 | GCCAAGAGCGAAAUGAGUGTT against Mcf2l | inactive: -0.999

Pulled one by one from the list above:
Row | Sequence | z-score
77 | GCUCAGAUGUAUAGACUCATT against Ap2a2 | inactive: 0.0961
68 | GGGCAACAUUUUGGAUUAUTT against Naglu | inactive: -0.083
74 | GGCUUUGCUUUUUCUGUAUTT against Ppif | inactive: -0.218

Individual results from the entries so far:
z-score with GGAAACAAAAGGAUUUCUGTT against Fbxl13 reads inactive: 1.24
z-score with GGUGGAAUGUCACUACACUTT against Calcoco1 reads inactive: 0.916

Later entries.

Row | Sequence | z-score
89 | CCGACGAUGGCACAUUACATT against Ranbp3 | inactive: 0.307
90 | GCUCUCUCCAUAUUAGUGGTT against Nkg7 | inactive: 0.12
91 | CCGUUAUAUCUGCCAGUUUTT against Clec18a | inactive: 0.12
92 | GCUGAAGGCGACAAUGGAUTT against Ak2 | inactive: -0.0901
93 | GCAAUAGGUUUAAAGACAUTT against Tgm5 | inactive: -0.969
94 | GGACCAUUCAUUUCUGGAGTT against Riok3 | inactive: 0.541
95 | GGAGAUAGAAUUGAAAUUCTT against Prl8a2 | inactive: -1.26
96 | GCCCAUCAACCUAAUUUCATT against Tarbp2 | inactive: -0.831
97 | GCAACUGAGGCUUUCUUUGTT against Copg1 | inactive: -1.53
98 | GGGUGUUUGGAGAUUGUGUTT against Heatr3 | active: -2.93
99 | GGAUCCACAAGCGACUCAUTT against Rps20 | inactive: 1.04
100 | GGAGCUUACCAAGCACUACTT against Tspan18 | inactive: -0.658
101 | GGAAGAGAAAGCAAAGUCATT against Ddx19a | inactive: -0.43
102 | GGAACACCAUGAAGAAGACTT against Gabarap | inactive: -0.147
103 | GGCUCGAAAGCGGUUCUUATT against Amfr | inactive: -0.828
104 | GGGUGGGUGUUCAUUAUUATT against Timd2 | inactive: -1.29
105 | GGAUCAGAAGUUGAUAGAUTT against Tmem81 | inactive: 0.197
106 | GGCAGACAAGUUGUUAAAATT against Nusap1 | inactive: -0.913
107 | GCACCAUUUUGAUCGUCAUTT against Olfr519 | inactive: 0.341
